Experimental data as given in the supplement of paper PMC10849652.
Some of the results follow.

Sequences of proteins named here, by UniProt entry; tags and fusion partners are left off. A change or cut given only in a name is not applied to a line headed by its entry.
UniProt Q86UP2: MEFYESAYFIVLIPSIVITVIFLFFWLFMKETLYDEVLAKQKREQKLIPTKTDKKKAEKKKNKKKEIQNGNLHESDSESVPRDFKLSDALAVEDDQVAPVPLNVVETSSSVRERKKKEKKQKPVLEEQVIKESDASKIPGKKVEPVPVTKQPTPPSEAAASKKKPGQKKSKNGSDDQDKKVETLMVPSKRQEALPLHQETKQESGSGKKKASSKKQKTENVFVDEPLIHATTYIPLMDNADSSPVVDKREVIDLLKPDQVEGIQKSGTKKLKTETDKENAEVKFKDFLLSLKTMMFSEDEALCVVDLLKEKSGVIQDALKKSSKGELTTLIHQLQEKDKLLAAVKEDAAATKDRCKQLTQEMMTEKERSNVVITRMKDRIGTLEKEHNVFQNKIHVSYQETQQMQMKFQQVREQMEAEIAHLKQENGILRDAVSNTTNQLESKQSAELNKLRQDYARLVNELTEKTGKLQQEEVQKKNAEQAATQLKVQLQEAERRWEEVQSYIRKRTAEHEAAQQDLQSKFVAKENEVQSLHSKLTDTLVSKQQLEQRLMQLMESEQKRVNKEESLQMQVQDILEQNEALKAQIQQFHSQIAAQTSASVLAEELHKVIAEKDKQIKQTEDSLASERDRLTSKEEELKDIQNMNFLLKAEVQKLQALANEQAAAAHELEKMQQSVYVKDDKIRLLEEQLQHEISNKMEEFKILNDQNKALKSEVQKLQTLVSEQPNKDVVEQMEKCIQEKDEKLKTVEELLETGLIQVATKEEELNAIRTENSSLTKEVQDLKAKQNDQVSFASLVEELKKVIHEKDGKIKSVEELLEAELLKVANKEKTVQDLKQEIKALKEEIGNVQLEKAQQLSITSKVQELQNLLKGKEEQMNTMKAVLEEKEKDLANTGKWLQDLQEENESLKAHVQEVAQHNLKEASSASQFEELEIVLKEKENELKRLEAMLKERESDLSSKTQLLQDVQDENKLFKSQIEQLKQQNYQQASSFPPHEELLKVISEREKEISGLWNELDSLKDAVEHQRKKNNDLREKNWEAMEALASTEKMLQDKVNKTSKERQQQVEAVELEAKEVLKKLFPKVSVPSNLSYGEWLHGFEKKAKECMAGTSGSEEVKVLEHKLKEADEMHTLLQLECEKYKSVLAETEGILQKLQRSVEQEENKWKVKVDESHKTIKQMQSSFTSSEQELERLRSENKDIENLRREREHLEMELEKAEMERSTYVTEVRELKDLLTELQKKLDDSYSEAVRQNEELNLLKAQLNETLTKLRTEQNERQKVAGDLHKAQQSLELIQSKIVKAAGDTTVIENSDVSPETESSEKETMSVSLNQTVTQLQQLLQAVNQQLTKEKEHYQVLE
UniProt Q9UGP4: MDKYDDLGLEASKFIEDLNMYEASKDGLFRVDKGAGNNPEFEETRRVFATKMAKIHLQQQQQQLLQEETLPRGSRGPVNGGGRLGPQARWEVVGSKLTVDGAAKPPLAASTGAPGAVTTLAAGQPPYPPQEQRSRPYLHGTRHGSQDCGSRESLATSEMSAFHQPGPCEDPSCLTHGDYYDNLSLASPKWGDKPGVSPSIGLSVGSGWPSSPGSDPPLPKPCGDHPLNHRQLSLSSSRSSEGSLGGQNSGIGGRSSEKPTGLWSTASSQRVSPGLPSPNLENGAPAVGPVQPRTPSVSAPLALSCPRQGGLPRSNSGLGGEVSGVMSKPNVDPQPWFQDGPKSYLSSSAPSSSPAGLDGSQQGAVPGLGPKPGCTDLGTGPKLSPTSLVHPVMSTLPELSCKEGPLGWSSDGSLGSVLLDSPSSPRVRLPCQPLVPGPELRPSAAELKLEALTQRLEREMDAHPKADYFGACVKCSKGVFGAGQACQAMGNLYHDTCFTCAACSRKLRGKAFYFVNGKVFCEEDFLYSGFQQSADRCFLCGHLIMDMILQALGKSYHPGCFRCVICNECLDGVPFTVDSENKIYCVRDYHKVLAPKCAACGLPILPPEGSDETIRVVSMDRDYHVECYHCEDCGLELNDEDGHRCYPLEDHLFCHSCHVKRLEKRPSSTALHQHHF
UniProt Q86U70: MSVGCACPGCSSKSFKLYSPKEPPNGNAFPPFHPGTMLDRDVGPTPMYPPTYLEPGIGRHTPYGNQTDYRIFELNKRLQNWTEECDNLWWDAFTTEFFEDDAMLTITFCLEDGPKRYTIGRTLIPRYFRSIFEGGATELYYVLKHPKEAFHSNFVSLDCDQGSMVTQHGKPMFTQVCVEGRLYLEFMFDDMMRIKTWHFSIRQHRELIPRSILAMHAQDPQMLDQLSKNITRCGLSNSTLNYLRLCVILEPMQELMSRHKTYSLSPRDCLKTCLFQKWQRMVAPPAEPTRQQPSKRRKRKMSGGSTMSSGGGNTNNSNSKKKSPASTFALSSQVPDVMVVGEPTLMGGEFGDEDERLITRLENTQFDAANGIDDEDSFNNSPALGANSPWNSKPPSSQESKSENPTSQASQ
UniProt Q9UN81: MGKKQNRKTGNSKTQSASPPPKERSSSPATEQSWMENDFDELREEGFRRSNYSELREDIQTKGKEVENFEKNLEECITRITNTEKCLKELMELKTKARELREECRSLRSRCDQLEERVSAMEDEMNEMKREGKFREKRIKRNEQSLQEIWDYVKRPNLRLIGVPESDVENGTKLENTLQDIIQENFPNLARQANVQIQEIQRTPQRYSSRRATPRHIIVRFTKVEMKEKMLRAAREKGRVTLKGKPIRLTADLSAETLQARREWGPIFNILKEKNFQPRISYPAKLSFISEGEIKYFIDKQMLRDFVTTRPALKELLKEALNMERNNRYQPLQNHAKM
UniProt Q9H008: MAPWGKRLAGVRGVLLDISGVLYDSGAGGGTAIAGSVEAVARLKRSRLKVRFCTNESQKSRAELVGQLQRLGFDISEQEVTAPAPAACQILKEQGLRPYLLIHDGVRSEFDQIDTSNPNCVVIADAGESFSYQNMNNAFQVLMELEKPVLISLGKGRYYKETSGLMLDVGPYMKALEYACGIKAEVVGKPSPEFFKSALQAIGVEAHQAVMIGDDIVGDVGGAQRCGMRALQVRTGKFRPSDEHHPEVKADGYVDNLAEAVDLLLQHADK
UniProt Q9Y2U8: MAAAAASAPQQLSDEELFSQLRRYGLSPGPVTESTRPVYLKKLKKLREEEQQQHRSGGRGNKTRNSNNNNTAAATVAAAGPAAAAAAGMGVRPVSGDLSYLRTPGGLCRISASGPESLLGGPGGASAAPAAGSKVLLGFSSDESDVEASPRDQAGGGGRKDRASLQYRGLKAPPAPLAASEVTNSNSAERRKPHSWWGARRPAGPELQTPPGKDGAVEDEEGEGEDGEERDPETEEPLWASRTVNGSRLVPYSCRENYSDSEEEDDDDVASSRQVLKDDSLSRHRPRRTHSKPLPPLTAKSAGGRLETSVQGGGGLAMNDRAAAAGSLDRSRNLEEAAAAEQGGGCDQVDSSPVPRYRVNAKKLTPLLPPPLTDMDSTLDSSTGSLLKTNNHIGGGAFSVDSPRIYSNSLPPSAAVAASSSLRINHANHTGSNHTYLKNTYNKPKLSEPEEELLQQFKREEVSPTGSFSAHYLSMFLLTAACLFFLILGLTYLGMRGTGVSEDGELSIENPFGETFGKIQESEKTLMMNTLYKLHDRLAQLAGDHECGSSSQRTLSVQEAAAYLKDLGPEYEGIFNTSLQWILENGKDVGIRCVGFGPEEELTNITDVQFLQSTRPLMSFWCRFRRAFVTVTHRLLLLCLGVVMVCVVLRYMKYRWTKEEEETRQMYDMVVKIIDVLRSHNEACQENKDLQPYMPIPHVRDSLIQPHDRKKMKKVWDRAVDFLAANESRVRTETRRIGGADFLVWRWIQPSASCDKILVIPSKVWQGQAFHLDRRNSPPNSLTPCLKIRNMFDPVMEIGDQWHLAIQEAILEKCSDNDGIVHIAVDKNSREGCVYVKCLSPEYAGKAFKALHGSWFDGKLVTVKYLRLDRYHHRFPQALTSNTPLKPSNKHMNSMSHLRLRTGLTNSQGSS
UniProt O94898: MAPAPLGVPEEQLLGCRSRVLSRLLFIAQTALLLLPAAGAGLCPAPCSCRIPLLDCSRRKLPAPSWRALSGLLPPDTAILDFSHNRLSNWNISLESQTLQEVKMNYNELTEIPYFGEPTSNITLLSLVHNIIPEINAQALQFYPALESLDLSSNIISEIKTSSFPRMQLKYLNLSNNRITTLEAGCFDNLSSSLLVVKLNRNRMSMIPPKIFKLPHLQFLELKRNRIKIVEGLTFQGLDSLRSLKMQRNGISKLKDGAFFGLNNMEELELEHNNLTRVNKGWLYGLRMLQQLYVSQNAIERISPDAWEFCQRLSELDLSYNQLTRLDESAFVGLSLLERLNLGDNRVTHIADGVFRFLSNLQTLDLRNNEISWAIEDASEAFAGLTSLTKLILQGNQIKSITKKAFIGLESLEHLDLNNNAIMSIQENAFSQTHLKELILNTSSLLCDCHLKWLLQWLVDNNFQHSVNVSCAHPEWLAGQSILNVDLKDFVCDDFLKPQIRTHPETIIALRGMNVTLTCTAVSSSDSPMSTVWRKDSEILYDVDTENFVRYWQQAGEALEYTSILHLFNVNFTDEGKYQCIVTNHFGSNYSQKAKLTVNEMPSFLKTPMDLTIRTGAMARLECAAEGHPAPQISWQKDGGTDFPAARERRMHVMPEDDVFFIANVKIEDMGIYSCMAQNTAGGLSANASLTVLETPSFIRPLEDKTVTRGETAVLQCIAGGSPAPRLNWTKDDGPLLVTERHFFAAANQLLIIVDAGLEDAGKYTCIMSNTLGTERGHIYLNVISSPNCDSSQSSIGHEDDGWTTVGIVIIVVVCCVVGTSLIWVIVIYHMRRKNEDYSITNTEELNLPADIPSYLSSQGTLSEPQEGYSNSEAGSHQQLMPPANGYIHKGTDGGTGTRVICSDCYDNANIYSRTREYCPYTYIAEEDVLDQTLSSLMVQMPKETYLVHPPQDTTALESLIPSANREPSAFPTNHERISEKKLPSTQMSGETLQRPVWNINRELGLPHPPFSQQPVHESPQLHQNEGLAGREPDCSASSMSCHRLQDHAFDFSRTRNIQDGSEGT
UniProt P13473: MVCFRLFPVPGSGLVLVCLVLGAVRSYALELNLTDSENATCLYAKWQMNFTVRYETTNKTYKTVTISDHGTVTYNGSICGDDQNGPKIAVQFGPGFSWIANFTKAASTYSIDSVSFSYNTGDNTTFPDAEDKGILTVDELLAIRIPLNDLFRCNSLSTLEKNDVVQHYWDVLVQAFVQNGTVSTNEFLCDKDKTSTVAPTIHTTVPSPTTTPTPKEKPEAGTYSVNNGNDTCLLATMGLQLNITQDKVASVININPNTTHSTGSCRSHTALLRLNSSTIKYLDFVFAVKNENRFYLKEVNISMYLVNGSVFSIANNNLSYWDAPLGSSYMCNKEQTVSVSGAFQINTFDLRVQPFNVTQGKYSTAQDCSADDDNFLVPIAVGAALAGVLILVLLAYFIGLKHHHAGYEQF
UniProt Q15334: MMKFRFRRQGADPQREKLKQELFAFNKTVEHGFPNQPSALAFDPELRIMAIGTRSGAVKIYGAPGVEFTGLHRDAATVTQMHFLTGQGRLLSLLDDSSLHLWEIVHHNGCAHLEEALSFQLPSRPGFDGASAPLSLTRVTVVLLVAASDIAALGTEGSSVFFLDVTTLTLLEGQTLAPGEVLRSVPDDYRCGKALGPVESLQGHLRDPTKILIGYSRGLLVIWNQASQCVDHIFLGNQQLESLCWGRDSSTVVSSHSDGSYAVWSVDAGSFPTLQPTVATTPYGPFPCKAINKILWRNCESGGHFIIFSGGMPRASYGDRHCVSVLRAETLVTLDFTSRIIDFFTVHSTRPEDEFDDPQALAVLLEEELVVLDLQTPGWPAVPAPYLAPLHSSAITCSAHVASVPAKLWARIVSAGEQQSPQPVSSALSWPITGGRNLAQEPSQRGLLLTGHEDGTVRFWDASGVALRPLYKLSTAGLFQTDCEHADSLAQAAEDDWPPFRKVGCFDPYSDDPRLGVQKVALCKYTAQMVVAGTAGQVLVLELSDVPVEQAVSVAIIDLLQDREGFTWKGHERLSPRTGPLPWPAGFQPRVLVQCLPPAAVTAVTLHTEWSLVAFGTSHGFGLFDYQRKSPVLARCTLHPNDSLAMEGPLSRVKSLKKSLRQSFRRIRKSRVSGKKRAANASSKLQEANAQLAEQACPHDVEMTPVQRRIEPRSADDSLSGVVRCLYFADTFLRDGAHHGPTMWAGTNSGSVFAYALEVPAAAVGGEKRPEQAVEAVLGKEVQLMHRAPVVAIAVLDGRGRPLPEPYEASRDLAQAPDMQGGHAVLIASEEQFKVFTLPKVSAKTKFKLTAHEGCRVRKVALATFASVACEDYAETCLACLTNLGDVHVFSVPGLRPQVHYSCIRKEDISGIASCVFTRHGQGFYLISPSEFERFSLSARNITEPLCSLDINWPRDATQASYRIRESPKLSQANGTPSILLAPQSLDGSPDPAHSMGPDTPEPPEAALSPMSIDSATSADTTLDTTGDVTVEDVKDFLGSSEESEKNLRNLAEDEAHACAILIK

Legend:
Assay in all cases: log2 fold change, soluble protein after heating vs DMSO (PISA); higher = thermal stabilisation; K562 cells, 10 uM, 30 min; active = over 0.2 and 3.5 SD of the protein, either way, in both replicates (recomputed)
[1] = compound: CC1=C(C=C(C=C1)NC(=O)C2=CC(=CC=C2)C(C)(C)C#N)NC3=CC4=C(C=C3)N=CN(C4=O)C
Outline: (§1)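 Thermal stability values are relative to control samples and come from duplicates. They are expressed as log2 fold changes. For measurement, K562 cells (2×10^6 cells/mL) received 10 μM compound for 30 min, and aliquots were heated for 3 min over 48°C-58°C, pooled, and extracted at 4°C in PBS with 0.5% NP-40. Soluble protein, the supernatant after 21,000xg for 90 min, was quantified by TMTpro 16plex LC-MS/MS with equalised channel sums.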

[2] = compound: CC1=C(C=C(C=C1)NC(=O)C2=CC(=CC=C2)N(C)C)NC(=O)C3=CC=C(C=C3)O
Outline: as §1

[3] = compound: CC1=CC=C(C=C1)SC2=C3C=C(SC3=CN=C2)C(=O)N
Outline: as §1

[4] = compound: CC1=NC(=CC=C1)C2=C(N=C(N2)C(C)(C)C)C3=CC4=NC=CN=C4C=C3
Outline: as §1

Nexturastat A = compound: CCCCN(Cc1ccc(C(=O)NO)cc1)C(=O)Nc1ccccc1 [Nexturastat A]
Outline: as §1

vemurafenib = compound: CCCS(=O)(=O)Nc1ccc(F)c(C(=O)c2c[nH]c3ncc(-c4ccc(Cl)cc4)cc23)c1F [vemurafenib]
Outline: as §1

[5] = compound: CCCS(=O)(=O)Nc1ccc(F)c(C(=O)c2c[nH]c3ncc(Cl)cc23)c1F
Outline: as §1

[6] = compound: CCCc1cc(C)[nH]c(=O)c1CNC(=O)c1cc(-c2ccnc(N3CCN(C)CC3)c2)cc2c1cnn2C(C)C
Outline: as §1

givinostat = compound: CCN(CC)Cc1ccc2cc(COC(=O)Nc3ccc(C(=O)NO)cc3)ccc2c1 [givinostat]
Outline: as §1

barasertib = compound: CCN(CCCOc1ccc2c(Nc3cc(CC(=O)Nc4cccc(F)c4)[nH]n3)ncnc2c1)CCOP(=O)(O)O [barasertib]
Outline: as §1

[7] = compound: CC[C@@H]1C(=O)N(C)c2cnc(Nc3ccc(C(=O)NC4CCN(C)CC4)cc3OC)nc2N1C1CCCC1
Outline: as §1

volasertib = compound: CC[C@@H]1C(=O)N(C)c2cnc(Nc3ccc(C(=O)N[C@H]4CC[C@H](N5CCN(CC6CC6)CC5)CC4)cc3OC)nc2N1C(C)C [volasertib]
Outline: as §1

[8] = compound: CC[C@H](C)N1C=C(C2=C(C=C(C=C21)C3=CN=C(C=C3)N4CCNCC4)C(=O)NCC5=C(C=C(NC5=O)C)C)C
Outline: as §1

epoxomicin = compound: CC[C@H](C)[C@@H](C(=O)N[C@@H]([C@@H](C)O)C(=O)N[C@@H](CC(C)C)C(=O)[C@]1(CO1)C)NC(=O)[C@H]([C@@H](C)CC)N(C)C(=O)C [epoxomicin]
Outline: as §1

[9] = compound: CCn1cc(-c2ccnc3[nH]c(-c4cccc(CN(C)C)c4)cc23)c(-c2ccc(NC(=O)N(C)C)cc2)n1
Outline: as §1

[10] = compound: CN(C)CC(=O)Nc1ccc2[nH]c(=O)c3ccccc3c2c1
Outline: as §1

[11] = compound: CN1C2=C(C3=C1C(=O)N(N=C3)CC4=CC(=CC=C4)N)SC(=C2)S(=O)C
Outline: as §1

[12] = compound: CN1CCC(CNc2ccc3ncc(-c4cccc(OC(F)(F)F)c4)n3n2)CC1
Outline: as §1

[13] = compound: CCn1c(C(=O)N(C2CC2)C2CC2)cc2c3c(ncn3C)c(Nc3cc(C)n(C)n3)nc21
Outline: as §1

rosiglitazone = compound: CN(CCOC1=CC=C(C=C1)C[C@H]2C(=O)NC(=O)S2)C3=CC=CC=N3 (racemic) [rosiglitazone]
Outline: as §1

Measured: log2 fold change

LARP4 isoform 4 (UniProt Q71RC2)
inactive: [1] 0.066 | [2] 0.005 | [3] -0.041 | [4] -0.002 | Nexturastat A 0.251 | vemurafenib -0.017 | [5] 0.018 | [6] 0.054 | givinostat 0.04 | barasertib -0.053 | [7] -0.016 | volasertib -0.351 | [8] 0.117 | epoxomicin -0.107 | [9] 0.07 | [10] 0.009 | [11] 0.137 | [12] -0.252

KTN1 (UniProt Q86UP2)
inactive: [1] -0.071 | [2] -0.051 | [3] 0.014 | [4] -0.002 | Nexturastat A 0.141 | vemurafenib 0.012 | [5] 0.027 | [6] 0.034 | givinostat 0.022 | barasertib 0.033 | [7] 0.039 | volasertib -0.242 | [8] 0.028 | epoxomicin 0.037 | [9] 0.084 | [10] 0.006 | [11] 0.127 | [12] -0.006

LACTB (UniProt P83111)
inactive: [1] 0.05 | [2] 0.068 | [3] -0.012 | [4] -0.156 | Nexturastat A 0.089 | vemurafenib 0.18 | [5] -0.051 | [6] 0.039 | givinostat 0.005 | barasertib 0.033 | [7] 0.005 | volasertib -0.132 | [8] -0.076 | epoxomicin -0.067 | [13] 0.073 | [9] 0.065 | [10] -0.143 | rosiglitazone -0.044 | [11] 0.218 | [12] 0.007

LIMD1 (UniProt Q9UGP4)
inactive: [1] 0 | [2] 0.009 | [3] 0.037 | [4] -0.012 | Nexturastat A -0.022 | vemurafenib 0.024 | [5] 0.084 | [6] 0.019 | givinostat 0.02 | barasertib -0.017 | [7] -0.055 | [8] 0.042 | epoxomicin -0.018 | [9] 0.002 | [10] 0.015 | [11] -0.028 | [12] -0.043
active: volasertib -0.245

L2HGDH (UniProt Q9H9P8)
active: [12] -0.325
inactive: [1] 0.03 | [2] 0.009 | [3] 0.021 | [4] -0.046 | Nexturastat A -0.102 | vemurafenib 0.015 | [5] -0.042 | [6] -0.081 | givinostat -0.016 | barasertib 0.011 | [7] -0.088 | volasertib -0.014 | [8] 0.006 | epoxomicin -0.02 | [9] -0.067 | [10] -0.027 | [11] -0.11

LPIN2 (UniProt Q92539)
inactive: [1] -0.076 | [2] 0.027 | [3] 0.048 | [4] 0.031 | Nexturastat A 0.083 | vemurafenib -0.08 | [5] -0.067 | [6] 0.043 | givinostat -0.082 | barasertib 0.04 | [7] 0.012 | volasertib -0.105 | [8] 0.059 | epoxomicin 0.026 | [13] -0.028 | [9] 0.071 | [10] -0.054 | rosiglitazone -0.024 | [11] -0.037 | [12] -0.058

LARP1 (UniProt Q6PKG0)
inactive: [1] 0.01 | [2] 0.032 | [3] -0.035 | [4] 0.029 | Nexturastat A 0.142 | vemurafenib -0.033 | [5] -0.03 | [6] 0.046 | givinostat 0.012 | barasertib -0.006 | [7] 0.098 | volasertib 0.071 | [8] 0.047 | epoxomicin -0.034 | [9] 0.016 | [10] -0.054 | [11] 0.131 | [12] 0.025

LDB1 (UniProt Q86U70)
inactive: [1] 0.016 | [2] 0.023 | [3] 0.022 | [4] -0.027 | Nexturastat A -0.024 | vemurafenib -0.008 | [5] -0.007 | [6] -0.022 | givinostat 0.003 | barasertib -0.034 | [7] 0.028 | volasertib 0.027 | [8] -0.021 | epoxomicin -0.013 | [13] -0.019 | [9] -0.031 | [10] -0.012 | rosiglitazone 0.02 | [11] 0.011 | [12] 0.054

KYAT1 (UniProt Q16773)
inactive: [1] 0.021 | [2] -0.014 | [3] 0.041 | [4] 0.042 | Nexturastat A -0.033 | vemurafenib -0.006 | [5] 0.045 | [6] -0.024 | givinostat -0.006 | barasertib -0.032 | [7] 0.021 | volasertib -0.075 | [8] -0.008 | epoxomicin -0.026 | [13] -0.004 | [9] -0.054 | [10] 0.066 | rosiglitazone -0.001 | [11] -0.05 | [12] -0.045

LONP2 (UniProt Q86WA8)
inactive: [1] 0.173 | [2] -0.119 | [3] 0.08 | [4] 0.009 | Nexturastat A -0.083 | vemurafenib 0.128 | [5] -0.137 | [6] 0.013 | givinostat -0.05 | barasertib -0.056 | [7] 0.141 | volasertib 0.16 | [8] 0.063 | epoxomicin 0.336 | [9] 0.034 | [10] -0.106 | [11] 0.054 | [12] 0.17

L1RE1 (UniProt Q9UN81)
inactive: [1] 0.019 | [2] 0.123 | [3] 0.018 | [4] -0.11 | Nexturastat A 0.389 | vemurafenib -0.01 | [5] -0.057 | [6] 0 | givinostat -0.029 | barasertib -0.11 | [7] 0.147 | volasertib 0.059 | [8] -0.013 | epoxomicin 0.033 | [13] -0.051 | [10] 0.008 | rosiglitazone -0.174 | [11] 0.263

LHPP (UniProt Q9H008)
inactive: [1] 0.01 | [2] 0.008 | [3] 0.048 | [4] 0.05 | Nexturastat A 0.081 | vemurafenib -0.055 | [5] -0.041 | [6] 0.003 | givinostat -0.027 | barasertib -0.081 | [7] 0.058 | volasertib -0.009 | [8] -0.023 | epoxomicin 0.029 | [13] -0.005 | [9] -0.041 | [10] 0.017 | rosiglitazone 0.029 | [11] -0.01 | [12] -0.088

LEMD3 (UniProt Q9Y2U8)
inactive: [1] -0.066 | [2] -0.071 | [3] -0.005 | [4] -0.017 | Nexturastat A 0.026 | vemurafenib 0.056 | [5] 0.005 | [6] 0.054 | givinostat 0.077 | barasertib 0.023 | [7] -0.096 | [8] -0.063 | epoxomicin 0.095 | [9] 0.003 | [10] 0.123 | [11] -0.016 | [12] -0.081
active: volasertib -0.324

Two records picked at random from the list so far, as already listed:
L2HGDH (UniProt Q9H9P8)
active: [12] -0.325
inactive: [1] 0.03 | [2] 0.009 | [3] 0.021 | [4] -0.046 | Nexturastat A -0.102 | vemurafenib 0.015 | [5] -0.042 | [6] -0.081 | givinostat -0.016 | barasertib 0.011 | [7] -0.088 | volasertib -0.014 | [8] 0.006 | epoxomicin -0.02 | [9] -0.067 | [10] -0.027 | [11] -0.11

LIMD1 (UniProt Q9UGP4)
inactive: [1] 0 | [2] 0.009 | [3] 0.037 | [4] -0.012 | Nexturastat A -0.022 | vemurafenib 0.024 | [5] 0.084 | [6] 0.019 | givinostat 0.02 | barasertib -0.017 | [7] -0.055 | [8] 0.042 | epoxomicin -0.018 | [9] 0.002 | [10] 0.015 | [11] -0.028 | [12] -0.043
active: volasertib -0.245

(list continues)

LRIG2 (UniProt O94898)
inactive: [1] -0.026 | [2] -0.022 | [3] -0.042 | [4] -0.03 | Nexturastat A -0.05 | vemurafenib 0.137 | [5] -0.054 | [6] -0.037 | givinostat 0.013 | barasertib 0.04 | [7] 0.04 | volasertib -0.094 | [8] -0.222 | epoxomicin 0.095 | [13] 0.071 | [9] 0.002 | [10] -0.058 | rosiglitazone 0.054 | [11] 0.105 | [12] 0.035

LAMP2 (UniProt P13473)
inactive: [1] 0 | [2] 0.093 | [3] -0.043 | [4] 0.066 | Nexturastat A -0.104 | vemurafenib 0.05 | [5] 0.048 | [6] -0.028 | givinostat -0.02 | barasertib 0.007 | [7] 0.018 | volasertib 0.069 | [8] -0.023 | epoxomicin 0.083 | [9] 0.019 | [10] 0.059 | [11] -0.016 | [12] -0.032

LNPEP (UniProt Q9UIQ6)
inactive: [1] 0.018 | [2] 0.03 | [3] 0.01 | [4] -0.009 | Nexturastat A -0.051 | vemurafenib -0.013 | [5] 0.015 | [6] 0.008 | givinostat 0.014 | barasertib -0.009 | [7] 0.004 | volasertib -0.182 | [8] -0.016 | epoxomicin 0.014 | [9] -0.02 | [10] 0.012 | [11] -0.025 | [12] 0.024

LLGL1 (UniProt Q15334)
inactive: [1] -0.001 | [3] -0.029 | [4] 0.001 | Nexturastat A 0.044 | [5] 0.043 | givinostat -0.031 | volasertib 0.009 | epoxomicin -0.048 | [13] -0.023 | [11] -0.073
